Measurements taken from the supplement of paper PMC8728848.
The other results are listed elsewhere or left out.

What was measured:
Assay in all cases: glycan array binding signal (z-score within array); higher = stronger binding
Conditions in all cases: glycan notation: IUPAC condensed, linker removed
[1] = molecular target: Gal3S(b1-4)Glc
How it was run: (§1)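 The binding signal is a Z-score computed within each array and averaged over linkers. Arrays of the same protein sequence at different concentrations or buffers were also averaged together. Data originate from 3228 arrays in the Consortium for Functional Glycomics database, kept only where the protein sequence was available.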

[2] = molecular target: Gal3S(b1-4)Glc6S
How it was run: as §1

[3] = molecular target: Gal3S(b1-4)GlcNAc
How it was run: as §1

[4] = molecular target: Gal3S(b1-4)[Fuc(a1-3)]Glc6S
How it was run: as §1

[5] = molecular target: Gal3S(b1-4)[Fuc(a1-3)]GlcNAc
How it was run: as §1

[6] = molecular target: Gal3S(b1-4)[Fuc(a1-3)]GlcNAc6S
How it was run: as §1

[7] = molecular target: Gal3S4S(b1-4)GlcNAc
How it was run: as §1

[8] = molecular target: Gal3S6S(b1-4)GlcNAc
How it was run: as §1

[9] = molecular target: Gal3S6S(b1-4)GlcNAc6S
How it was run: as §1

[10] = molecular target: Gal4S(b1-4)GlcNAc
How it was run: as §1

[11] = molecular target: Gal4S6S(b1-4)GlcNAc
How it was run: as §1

[12] = molecular target: Gal6P(b1-4)GlcNAc
How it was run: as §1

[13] = molecular target: Gal6S(b1-3)GlcNAc
How it was run: as §1

[14] = molecular target: Gal6S(b1-3)GlcNAc6S
How it was run: as §1

[15] = molecular target: Gal6S(b1-4)Glc
How it was run: as §1

[16] = molecular target: Gal6S(b1-4)Glc6S
How it was run: as §1

[17] = molecular target: Gal6S(b1-4)GlcNAc
How it was run: as §1

[18] = molecular target: Gal6S(b1-4)GlcNAc6S
How it was run: as §1

[19] = molecular target: GalNAc(a1-3)Gal
How it was run: as §1

[20] = molecular target: GalNAc(a1-3)GalNAc
How it was run: as §1

[21] = molecular target: GalNAc(a1-3)GalNAc(b1-3)Gal(a1-4)Gal(b1-4)Glc
How it was run: as §1

[22] = molecular target: GalNAc(a1-3)GalNAc(b1-3)Gal(a1-4)Gal(b1-4)GlcNAc
How it was run: as §1

[23] = molecular target: GalNAc(b1-3)Gal
How it was run: as §1

[24] = molecular target: GalNAc(b1-3)Gal(a1-4)Gal(b1-4)GlcNAc
How it was run: as §1

[25] = molecular target: GalNAc(b1-3)Gal(a1-4)Gal(b1-4)GlcNAc(b1-3)Gal(b1-4)Glc
How it was run: as §1

[26] = molecular target: GalNAc(b1-3)Gal(a1-6)Gal(b1-4)Glc
How it was run: as §1

[27] = molecular target: GalNAc(b1-3)GalNAc
How it was run: as §1

[28] = molecular target: GalNAc(b1-3)GlcNAc
How it was run: as §1

[29] = molecular target: GalNAc(b1-4)Gal(b1-4)Glc
How it was run: as §1

[30] = molecular target: GalNAc(b1-4)GlcNAc
How it was run: as §1

B1: Awp1 (Candida glabrata) (protein)
chain: MSLITIFAFLIKATLVLSLDILTPTTLTGDQTFNEDVSVVSSLTLNDGSQYLFNNLLQIAPSSASVTANALAAVSVFTFSLPPSSSLSNSGTLIISNSNTGPSTEQHIVITPNVMANTGTITLSLAHTNTDSSSTLIIDPVTFYNTGTINYESIGSETNDPSLTGNILSIGSSGRTLQNLGTINLNAANSYYLLGTITENSGSINVQKGFLYVNALDFIGNTINLSTTTALAFISPVSQVVRVRGVFFGNIIASVGSSGTFSYNTQTGILTVTTNGVYSYDIGCGYNPALMSGQQETLSFQGNPYDTFLVLVNQPIPSDLTCAAVSSSITPSSSVEPSSSVVPSSSVEPSSSVEPSSSVEPSSSVEPSSSVEPSSSVEPSSSVEPSSSVEPSSSVEPSSSVEPSSSVEPSSSVEPSSSVEPSSSVEPSSSVEPSSSVEPSSSVEPSSSVEPSSSVEPSSLIVPSSSVEPSSSVLPSSSVVPSSSVEPSTPPIPSSSVEPSSSVVPSSPAVPSSSVEPSTPPIPSSSVVSASVFDTSSTLPSSPSVPPSSVSPSTISTPSSSAAPSSFCPTCVSSGTPPAPSSSAIVPTSSAGGGNGGDNREPGAAGQPGAAGQPGAAGQPGAAGQPGAAGQPGAAGQPGAAGQPGAAGQPGAAGQPGAAGQPGAGFGVGSEQPTPGAGAGSGSADGNQSGTGSGTGNGQQGSGQAGSGQAGSGQEGSGQAGSGQAGSGQAGSGQAGSGQAGLDNTASGQSEGGQASAMDGDQSGRDGQSNSGSLLQPNAQQGTGSGTGSDIGADQASGESPGQIGDAQPGSGTDQSSGRHSLAAEARTSQSHSLAADARTRSTTRQTSVIAPDTAPGTASGTAPGTAPGTAVVTTFHGCGTVNHKGMINILLALALLVLL
- glycan array binding signal (z-score) [1]: -0.209
- glycan array binding signal (z-score) [2]: -0.018
- glycan array binding signal (z-score) [3]: -0.254
- glycan array binding signal (z-score) [4]: 0.387
- glycan array binding signal (z-score) [5]: -0.505
- glycan array binding signal (z-score) [6]: 0.421
- glycan array binding signal (z-score) [7]: -1.05
- glycan array binding signal (z-score) [8]: 0.465
- glycan array binding signal (z-score) [9]: 0.942
- glycan array binding signal (z-score) [10]: -0.578
- glycan array binding signal (z-score) [11]: -1.01
- glycan array binding signal (z-score) [12]: 0.76
- glycan array binding signal (z-score) [13]: -0.891
- glycan array binding signal (z-score) [14]: 0.36
- glycan array binding signal (z-score) [15]: -0.577
- glycan array binding signal (z-score) [16]: -0.435
- glycan array binding signal (z-score) [17]: 0.718
- glycan array binding signal (z-score) [18]: 0.772
- glycan array binding signal (z-score) [19]: 0.064
- glycan array binding signal (z-score) [20]: 0.633
- glycan array binding signal (z-score) [21]: -0.907
- glycan array binding signal (z-score) [22]: 0.466
- glycan array binding signal (z-score) [23]: -0.242
- glycan array binding signal (z-score) [24]: 0.743
- glycan array binding signal (z-score) [25]: -0.13
- glycan array binding signal (z-score) [26]: -1.22
- glycan array binding signal (z-score) [27]: -0.489
- glycan array binding signal (z-score) [28]: 0.296
- glycan array binding signal (z-score) [29]: 0.511
- glycan array binding signal (z-score) [30]: -0.049
